Reference: paper doi:10.1101/749853
No constants are given. Whether binding was seen depends on the method and setting. Binding seen in cells or lysates may run through a third protein. Some results given as binding are weak or reduced against the parent protein; the word gives no strength. Where a sequence is shown, tags or fusion partners need not be part of it.

Chains of the proteins cited; added tags and fusions are not shown.
UniProt Q9C030: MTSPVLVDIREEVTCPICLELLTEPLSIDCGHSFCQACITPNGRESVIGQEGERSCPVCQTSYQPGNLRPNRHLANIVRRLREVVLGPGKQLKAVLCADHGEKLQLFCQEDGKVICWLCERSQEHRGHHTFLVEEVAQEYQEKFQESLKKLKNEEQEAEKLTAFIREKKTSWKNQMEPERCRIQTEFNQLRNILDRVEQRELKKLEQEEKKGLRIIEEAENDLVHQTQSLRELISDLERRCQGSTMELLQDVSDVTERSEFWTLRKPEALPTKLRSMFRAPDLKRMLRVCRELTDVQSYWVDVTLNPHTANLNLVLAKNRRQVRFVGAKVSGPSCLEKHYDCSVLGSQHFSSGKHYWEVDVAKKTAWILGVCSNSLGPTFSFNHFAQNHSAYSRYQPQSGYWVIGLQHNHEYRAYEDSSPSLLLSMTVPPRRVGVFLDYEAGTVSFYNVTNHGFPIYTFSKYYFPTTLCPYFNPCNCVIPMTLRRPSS

Target: T1, FLAG-tagged VAMP8 (UniProt Q9BV40)
T1 sequence: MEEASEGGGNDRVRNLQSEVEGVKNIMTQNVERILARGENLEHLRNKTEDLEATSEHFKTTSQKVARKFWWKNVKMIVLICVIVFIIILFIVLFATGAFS
Test: co-IP

HA-tagged TRIM6 (from UniProt Q9C030 1-488)
binding: binds
